Experimental data: PubChem BioAssay AID1259405 (NCATS, 2018)

Screen: 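Knock-downs that lift recombinant protein yield in hamster ovary cells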 (primary screen)
System: Chinese hamster CHO-K1 ovary cells with stable secreted eGFP expression
Knock-down reagent: single siRNA against mouse genes, 0.8 pmol siRNA per well (2 µl of 400 nM stock)
Duration: 3 days
Measured: 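Per-well intracellular GFP measured by laser scanning cytometry, plus viability from ATP luminescence, each relative to plate median of non-targeting control wells, in %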
Direction: GFP, % of control: higher = more GFP per well, higher productivity; viability (ATP), % of control: higher = more viable cells (more ATP)
Rule for the call: 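Called active when intracellular GFP, relative to negative control, is at or above 120%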
In all, the deposit lists about 50,000 reagents; below is an unselected part. About 4,000 of all reagents (8%) were called active. 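Mouse siRNA library applied to hamster cells; one well for each siRNA.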 Unmarked entries are inactive. Reagents against one gene are numbered here.

Tlk2 #1: GFP, % of control = 69.2; viability (ATP), % of control = 77.2
Tlk2 #2: GFP, % of control = 36.4; viability (ATP), % of control = 67.5
Tlk2 #3: GFP, % of control = 81.2; viability (ATP), % of control = 68.2
Tomm40 #1: GFP, % of control = 64.7; viability (ATP), % of control = 78.1
Tomm40 #2: GFP, % of control = 96.6; viability (ATP), % of control = 101
Tomm40 #3: GFP, % of control = 169 (active); viability (ATP), % of control = 140
Vma12 #1: GFP, % of control = 168 (active); viability (ATP), % of control = 90
Vma12 #2: GFP, % of control = 43.2; viability (ATP), % of control = 46.8
Vma12 #3: GFP, % of control = 92.2; viability (ATP), % of control = 78.8
Smndc1 #1: GFP, % of control = 78.8; viability (ATP), % of control = 95.7
Smndc1 #2: GFP, % of control = 69.4; viability (ATP), % of control = 79.2
Smndc1 #3: GFP, % of control = 52.4; viability (ATP), % of control = 66
Rhobtb3 #1: GFP, % of control = 75.1; viability (ATP), % of control = 77.3
Rhobtb3 #2: GFP, % of control = 75.5; viability (ATP), % of control = 83.4
Rhobtb3 #3: GFP, % of control = 74.1; viability (ATP), % of control = 92.2
Cldn4 #1: GFP, % of control = 44.7; viability (ATP), % of control = 55.3
Cldn4 #2: GFP, % of control = 69.8; viability (ATP), % of control = 66.3
Cldn4 #3: GFP, % of control = 59; viability (ATP), % of control = 77.6
Clec2i #1: GFP, % of control = 89.3; viability (ATP), % of control = 60.9
Clec2i #2: GFP, % of control = 76.1; viability (ATP), % of control = 82.9
Clec2i #3: GFP, % of control = 118; viability (ATP), % of control = 91.2
Styxl1 #1: GFP, % of control = 91.4; viability (ATP), % of control = 76.9
Styxl1 #2: GFP, % of control = 79.2; viability (ATP), % of control = 80.9
Styxl1 #3: GFP, % of control = 94.1; viability (ATP), % of control = 94.6

The list goes on, starting with the last 2 of the part before.
Styxl1 #2: GFP, % of control = 79.2; viability (ATP), % of control = 80.9
Styxl1 #3: GFP, % of control = 94.1; viability (ATP), % of control = 94.6
Plekhf2 #1: GFP, % of control = 72.3; viability (ATP), % of control = 60.5
Plekhf2 #2: GFP, % of control = 37.9; viability (ATP), % of control = 58.3
Plekhf2 #3: GFP, % of control = 90.3; viability (ATP), % of control = 61.2
Pcdh15 #1: GFP, % of control = 68.2; viability (ATP), % of control = 90.5
Pcdh15 #2: GFP, % of control = 54.2; viability (ATP), % of control = 68.2
Clip2 #1: GFP, % of control = 47.3; viability (ATP), % of control = 32.3
Clip2 #2: GFP, % of control = 89.6; viability (ATP), % of control = 85
Clip2 #3: GFP, % of control = 66.7; viability (ATP), % of control = 66.1
Rdh19 #1: GFP, % of control = 102; viability (ATP), % of control = 113
Rdh19 #2: GFP, % of control = 102; viability (ATP), % of control = 104
Rdh19 #3: GFP, % of control = 79.8; viability (ATP), % of control = 60
Grem2 #1: GFP, % of control = 68.9; viability (ATP), % of control = 83.6
Grem2 #2: GFP, % of control = 24.8; viability (ATP), % of control = 16.8
Grem2 #3: GFP, % of control = 118; viability (ATP), % of control = 87.5
Ston2 #1: GFP, % of control = 102; viability (ATP), % of control = 44.6
Ston2 #2: GFP, % of control = 85.6; viability (ATP), % of control = 106
Ston2 #3: GFP, % of control = 110; viability (ATP), % of control = 126
